Results taken from PubChem BioAssay AID1487 (National Center for Advancing Translational Sciences (NCATS), 2009).
The other results are listed elsewhere or left out. Further columns of the screen follow, without active or inactive calls. The list favours compounds with an active or inconclusive main result. The note in brackets gives the kind of curve behind each potency; many fits are weak.

Assay: qHTS Assay for Modulators of Lamin A Splicing
Conditions: HeLa LMNA splicing GFP/RFP minigene ratio, 48 h
In short: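 S3 HeLa cells stably expressing lamin A-EGFP splicing minigene plus DsRed2, 600 cells/well, 48 h compound exposure at 37C. Laser-scanning cytometry; analysed as GFP (500-530 nm)/RFP (575-640 nm) total intensity ratio; 0.5% DMSO vehicle.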

[1] = measured here: RFP viability control channel
[2] = measured here: GFP splicing reporter channel

SMILES	AC50 [1]	AC50 [2]
CC(C)Cc1nnc(NC(=O)Cc2cccs2)s1	39.8 µM [falling, partial curve, poor fit]	–
CCN(CC)S(=O)(=O)c1ccc(NC(=O)C2CCCN(C(=O)c3ccc(Cl)cc3)C2)cc1 (stereo unspecified)	14.1 µM [rising, partial curve]	11.2 µM [rising, partial curve]
Nc1ccc(Br)cc1C(NCC(=O)O)c1ccccc1 (stereo unspecified)	–	0.0891 µM [falling, partial curve]
O=C(O)CCCCCN=C1CCc2ccccc2N1	–	35.5 µM [falling, single point]
Cc1ccc(NC(=S)NCCc2ccccc2)nc1	5.62 µM [rising, full curve]	–
CC(=O)Oc1ccc2c(=O)c(Oc3ccccc3)coc2c1OC(C)=O	20 µM [rising, partial curve]	11.2 µM [rising, partial curve]
Brc1ccc2c(c1)C(c1cccnc1)=NNC(c1cccs1)=N2	22.4 µM [rising, partial curve, poor fit]	–
Cc1noc(C)c1C1(O)CCCCCCCCCCC1	17.8 µM [rising, single point]	31.6 µM [rising, single point]
CC(C)SC1=NC(C)(C)C=C(/C=C/c2ccc(Cl)cc2Cl)N1	–	20 µM [falling, single point]
Oc1cccc(/C=N/N(Cc2ccccc2)c2ccccc2)c1	35.5 µM [falling, partial curve]	0.00316 µM [falling, full curve, poor fit]
CC(C(=O)NCc1ccco1)n1nc(-c2ccccc2)c2cc(Cl)ccc21 (stereo unspecified)	–	25.1 µM [rising, single point]
CC(=O)C1=C(C)NC(SCC(=O)c2ccccc2)=C(C#N)C1c1ccco1 (stereo unspecified)	–	12.6 µM [rising, partial curve]
COc1cccc(S(=O)(=O)Nc2ccc3sc(C)nc3c2)c1	35.5 µM [rising, single point]	–
CC(C)SC1=NC(C)(C)C=C(/C=C/c2c(Cl)cccc2Cl)N1	–	10 µM [falling, partial curve]
Cc1c(C(=O)N2CCCCCC2)c(S(=O)(=O)Nc2ccc(OC(F)(F)F)cc2)c(C)n1C	–	35.5 µM [falling, single point]
O=C(CN1CCN(S(=O)(=O)c2ccc(Cl)s2)CC1)NCc1ccc(Cl)cc1	12.6 µM [rising, single point]	–
Cc1cccc2cc(C#N)c(SCC(=O)N3CCC(C)CC3)nc12	–	10 µM [rising, partial curve]
Cc1ccc(-c2nnc(-c3ccccc3)c(N3CCOCC3)n2)cc1	25.1 µM [falling, single point]	35.5 µM [falling, single point]
O=S(=O)(Cc1ccccc1)N1CCN(Cc2ccc3c(c2)OCO3)CC1	14.1 µM [rising, single point]	–

Rewritten as comma-separated lines: part of the list above.
SMILES,AC50 [1],AC50 [2]
Oc1cccc(/C=N/N(Cc2ccccc2)c2ccccc2)c1,"35.5 µM [falling, partial curve]","0.00316 µM [falling, full curve, poor fit]"
CC(C(=O)NCc1ccco1)n1nc(-c2ccccc2)c2cc(Cl)ccc21 (stereo unspecified),–,"25.1 µM [rising, single point]"

Going on with the list:

SMILES	AC50 [1]	AC50 [2]
CC(C)[C@H](NC(=O)OCc1ccccc1)C(=O)N[C@H](C=O)Cc1ccccc1	–	35.5 µM [falling, single point]
Cc1cc(C)c(S(=O)(=O)Nc2ccc(-c3ccc(N4CCCCC4)nn3)cc2)c(C)c1	0.0178 µM [falling, full curve, poor fit]	1.41 µM [falling, full curve, poor fit]
CCOc1ccc(S(=O)(=O)Nc2ccc3c(c2)c2c(n3S(=O)(=O)c3ccc(OCC)cc3)CCCC2=O)cc1	2.82 µM [falling, partial curve, poor fit]	4.47 µM [falling, partial curve, poor fit]
CCNc1ccc2noc3c2c1C(=O)c1ccccc1-3	14.1 µM [rising, single point]	–
COc1cc(/C=N/OCC(=O)NC2CCCCC2C)ccc1OCc1ccc(Cl)cc1 (stereo unspecified)	14.1 µM [rising, partial curve]	6.31 µM [rising, partial curve]
O=C(O)Cc1cccc2ccccc12	–	0.447 µM [falling, full curve, poor fit]
COc1cc(C2C(C#N)=C(C)NC3=C2C(=O)c2ccccc23)cc(OC)c1OC (stereo unspecified)	0.794 µM [rising, full curve]	0.631 µM [rising, single point]
CCOC(=O)C1CCN(C(c2cc3ccc(C)c(C)c3[nH]c2=O)c2nnnn2C2CCCCC2)CC1 (stereo unspecified)	–	17.8 µM [rising, single point]
CCn1c(CN2CCCCC2)nc2cc(NC(=O)COc3cc(C)ccc3C(C)C)ccc21	35.5 µM [falling, partial curve, poor fit]	35.5 µM [falling, partial curve]
Cc1ccc(N(C)S(=O)(=O)c2ccc(-c3cnc(C4CC4)o3)cc2)cc1	0.891 µM [rising, full curve]	0.0355 µM [rising, full curve, poor fit]
COc1ccc(N(C)S(=O)(=O)c2cccc(C(=O)Nc3ccc(OC)nc3)c2)cc1	14.1 µM [rising, partial curve]	–
O=C(Cc1c[nH]c2ccccc12)NCc1ccccc1F	3.98 µM [rising, single point]	–
O=C(c1ccccc1NS(=O)(=O)c1cccc(C(F)(F)F)c1)N1CCc2ccccc21	35.5 µM [rising, single point]	–
O=C(Nc1nnc(-c2ccccn2)o1)c1cccc(Br)c1	20 µM [rising, single point]	–
Cc1ccc(C)c(NC(=O)N2CCN(c3nnc(C)c4c(C)n(-c5ccccc5)nc34)CC2)c1	0.251 µM [falling, full curve, poor fit]	–
Cc1cc(C)nc(/N=C(\N)Nc2ccc(OCc3ccccc3)cc2)n1	–	6.31 µM [falling, single point]
Cc1scc(-c2n[nH]c(=S)n2C(C)c2ccccc2)c1C (stereo unspecified)	31.6 µM [rising, single point]	14.1 µM [rising, single point]
Cc1oc(-c2ccc(-c3ccccc3)cc2)nc1CN1CCN(CC(=O)N(C)C)CC1	14.1 µM [falling, partial curve, poor fit]	20 µM [falling, partial curve, poor fit]
N#CCCn1c(Cl)nc2ccccc21	3.55 µM [rising, partial curve]	3.16 µM [rising, single point]

SMILES	AC50 [1]	AC50 [2]
O=C(CSc1nc2ccccc2c(=O)n1Cc1ccc(C(=O)NC2CC2)cc1)NCc1ccco1	35.5 µM [rising, single point]	–
Cc1c(C(=O)N(C)c2ccccc2)sc2nc(-c3ccc(F)cc3)cn12	3.98 µM [rising, full curve, poor fit]	6.31 µM [rising, partial curve]
Cc1c(NC(=O)CCCCCN2C(=O)c3ccccc3C2=O)c(=O)n(-c2ccccc2)n1C	1.41 µM [falling, full curve, poor fit]	0.891 µM [falling, partial curve]
NNc1nc2c(Cl)ccc(Cl)c2s1	15.8 µM [rising, single point]	–
CC(CN1CCCCC1)NC(=O)c1cc(-c2ccccn2)nc2ccc(Cl)cc12 (stereo unspecified)	–	35.5 µM [falling, single point]
O=C(CN1CCN(S(=O)(=O)c2ccc3ccccc3c2)CC1)Nc1ccc2c(c1)CCC2	35.5 µM [rising, single point]	28.2 µM [rising, single point]
O=c1[nH]cnc2c1ncn2Cc1ccc([N+](=O)[O-])cc1	22.4 µM [falling, partial curve, poor fit]	–
CCn1c(CSCc2ccccc2)n[nH]c1=S	–	0.282 µM [falling, single point]
Cc1[nH]n(-c2ccccc2)c(=O)c1C=NC1CCCCCC1	0.0501 µM [falling, full curve, poor fit]	0.0141 µM [falling, full curve, poor fit]
CCCN(CCC)c1nc(NC2CCN(C(=O)OCC)CC2)nc(OC)n1	10 µM [rising, partial curve]	8.91 µM [rising, partial curve]
Cc1cc2cc(CN(Cc3ccc4c(c3)OCO4)C(=O)c3ccco3)c(=O)[nH]c2cc1C	–	35.5 µM [rising, single point]
CCc1nnc(NC(=O)c2ccc3ncsc3c2)s1	0.891 µM [falling, full curve, poor fit]	–
Cc1ccc(C)c(N2CCN(C(=O)Cc3cn(C)c4ccccc34)CC2)c1	15.8 µM [rising, partial curve]	14.1 µM [rising, partial curve]
Cc1cc(C)c2ccc(N)nc2c1O	17.8 µM [rising, single point]	–
COc1ccccc1/C=C(/CC(=O)NCc1ccccc1)c1nc2ccccc2s1	15.8 µM [rising, single point]	–
CCOc1ccccc1N1CCN(C(=S)Nc2ccc(S(N)(=O)=O)cc2)CC1	12.6 µM [rising, partial curve]	–
Cc1onc(-c2ccccc2)c1C(=O)NNC(=S)NC(=O)c1ccc(Br)cc1	–	3.98 µM [falling, partial curve, poor fit]
Cc1cc2c(C)cc(=O)oc2c2c1NCCC2	11.2 µM [rising, single point]	–

A section of the results above, as a working copy:
SMILES	AC50 [1]	AC50 [2]
Cc1c(NC(=O)CCCCCN2C(=O)c3ccccc3C2=O)c(=O)n(-c2ccccc2)n1C	1.41 µM [falling, full curve, poor fit]	0.891 µM [falling, partial curve]
NNc1nc2c(Cl)ccc(Cl)c2s1	15.8 µM [rising, single point]	–
CC(CN1CCCCC1)NC(=O)c1cc(-c2ccccn2)nc2ccc(Cl)cc12 (stereo unspecified)	–	35.5 µM [falling, single point]
